The values below come from PMC10618185.

No constants are given. Whether binding was seen depends on the method and setting. In cells and extracts the contact can be indirect. Some entries that bind do so weakly or less than the wild type. Sequences can lack the tags named with a protein.

For test [1], the target named is T1, Myc-VPS41 (human (cDNA from HeLa Kyoto cells)), P49754.
T1 chain: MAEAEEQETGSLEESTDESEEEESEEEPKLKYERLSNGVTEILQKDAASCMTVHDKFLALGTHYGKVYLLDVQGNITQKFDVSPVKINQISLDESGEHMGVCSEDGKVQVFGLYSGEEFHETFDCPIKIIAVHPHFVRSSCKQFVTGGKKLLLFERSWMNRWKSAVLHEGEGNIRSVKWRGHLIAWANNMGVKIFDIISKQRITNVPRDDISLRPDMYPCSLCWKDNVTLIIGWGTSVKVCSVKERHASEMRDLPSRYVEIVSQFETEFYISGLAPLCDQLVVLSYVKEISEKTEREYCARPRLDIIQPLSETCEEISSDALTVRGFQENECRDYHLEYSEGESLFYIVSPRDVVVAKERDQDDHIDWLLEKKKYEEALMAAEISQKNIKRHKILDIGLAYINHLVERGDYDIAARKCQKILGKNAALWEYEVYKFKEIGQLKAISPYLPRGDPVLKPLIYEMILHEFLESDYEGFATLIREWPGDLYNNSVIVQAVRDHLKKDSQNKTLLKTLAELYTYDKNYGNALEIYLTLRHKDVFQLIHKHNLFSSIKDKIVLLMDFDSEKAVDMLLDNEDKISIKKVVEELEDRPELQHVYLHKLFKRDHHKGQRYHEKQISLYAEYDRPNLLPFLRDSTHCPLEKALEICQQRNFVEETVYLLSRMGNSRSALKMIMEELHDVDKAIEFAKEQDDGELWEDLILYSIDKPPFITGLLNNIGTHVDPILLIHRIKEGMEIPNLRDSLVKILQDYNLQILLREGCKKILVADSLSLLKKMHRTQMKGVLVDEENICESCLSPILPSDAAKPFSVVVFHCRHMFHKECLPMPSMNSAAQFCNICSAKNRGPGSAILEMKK
As to the kind of experiment: co-IP; HeLa cells stably expressing V5-VPS16, transiently co-transfected with Myc-VPS41 or Myc-VPS8, His-VPS18, FLAG-VPS11 and HA-VPS39 or HA-VPS3; cells homogenised in PBS with protease inhibitors; IP with anti-Myc antibody and Protein G magnetic beads, 4 °C overnight; blots with anti-tag antibodies. To be noted: remark: other sources report otherwise.

The target in test [2] is T2, Myc-VPS8 (human (cDNA from HeLa Kyoto cells)) (UniProt Q8N3P4).
T2 sequence: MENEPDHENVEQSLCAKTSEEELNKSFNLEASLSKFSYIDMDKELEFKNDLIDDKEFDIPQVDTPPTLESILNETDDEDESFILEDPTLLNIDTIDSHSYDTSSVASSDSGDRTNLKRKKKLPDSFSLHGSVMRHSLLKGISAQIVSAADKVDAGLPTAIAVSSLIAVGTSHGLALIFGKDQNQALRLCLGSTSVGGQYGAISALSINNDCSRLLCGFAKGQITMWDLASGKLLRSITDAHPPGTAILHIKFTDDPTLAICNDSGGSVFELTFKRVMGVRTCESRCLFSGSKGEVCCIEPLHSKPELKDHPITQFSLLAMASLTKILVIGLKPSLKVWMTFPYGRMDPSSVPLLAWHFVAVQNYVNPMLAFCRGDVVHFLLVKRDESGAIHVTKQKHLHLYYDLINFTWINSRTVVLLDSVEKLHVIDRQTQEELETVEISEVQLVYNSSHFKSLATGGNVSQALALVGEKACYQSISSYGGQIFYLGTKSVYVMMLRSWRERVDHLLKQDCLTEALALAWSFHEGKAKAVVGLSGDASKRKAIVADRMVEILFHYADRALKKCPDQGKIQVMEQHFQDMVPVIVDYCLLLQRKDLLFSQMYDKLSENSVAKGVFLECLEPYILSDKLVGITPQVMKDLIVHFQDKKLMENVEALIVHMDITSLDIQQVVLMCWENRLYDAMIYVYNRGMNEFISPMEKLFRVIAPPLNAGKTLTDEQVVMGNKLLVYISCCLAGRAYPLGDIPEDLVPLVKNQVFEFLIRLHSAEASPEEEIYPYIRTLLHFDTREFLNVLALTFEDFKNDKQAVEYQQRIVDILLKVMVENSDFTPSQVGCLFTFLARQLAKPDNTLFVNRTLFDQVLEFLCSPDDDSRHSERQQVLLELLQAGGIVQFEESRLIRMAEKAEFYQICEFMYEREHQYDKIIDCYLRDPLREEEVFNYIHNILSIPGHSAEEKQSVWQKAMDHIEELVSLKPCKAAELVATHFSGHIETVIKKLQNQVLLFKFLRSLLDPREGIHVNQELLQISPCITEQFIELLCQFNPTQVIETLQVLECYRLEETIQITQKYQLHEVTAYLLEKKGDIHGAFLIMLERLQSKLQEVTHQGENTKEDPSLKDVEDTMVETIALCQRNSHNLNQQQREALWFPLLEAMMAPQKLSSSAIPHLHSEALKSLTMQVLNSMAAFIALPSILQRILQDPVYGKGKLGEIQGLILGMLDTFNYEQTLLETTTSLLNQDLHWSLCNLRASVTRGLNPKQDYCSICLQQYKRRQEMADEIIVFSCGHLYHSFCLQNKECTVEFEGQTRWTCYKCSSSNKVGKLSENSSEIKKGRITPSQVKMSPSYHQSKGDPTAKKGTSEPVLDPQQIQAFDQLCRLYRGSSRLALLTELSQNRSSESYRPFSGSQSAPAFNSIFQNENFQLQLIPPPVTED
As to the kind of experiment: co-IP; WT HeLa cells with single expression of Myc-VPS41, Myc-VPS8, HA-VPS39 or HA-VPS3; lysate in PBS; IP with anti-Myc or anti-HA antibody and Protein G magnetic beads; endogenous partners detected by western blotting.

Test [3] concerns the target T1, Myc-VPS41 (human (cDNA from HeLa Kyoto …)). The test is described as above. Particulars: remark: other sources report otherwise.
The target in test [4] is T3, HA-VPS3 (human (cDNA from HeLa Kyoto cells)), Q8WUH2.
T3 chain: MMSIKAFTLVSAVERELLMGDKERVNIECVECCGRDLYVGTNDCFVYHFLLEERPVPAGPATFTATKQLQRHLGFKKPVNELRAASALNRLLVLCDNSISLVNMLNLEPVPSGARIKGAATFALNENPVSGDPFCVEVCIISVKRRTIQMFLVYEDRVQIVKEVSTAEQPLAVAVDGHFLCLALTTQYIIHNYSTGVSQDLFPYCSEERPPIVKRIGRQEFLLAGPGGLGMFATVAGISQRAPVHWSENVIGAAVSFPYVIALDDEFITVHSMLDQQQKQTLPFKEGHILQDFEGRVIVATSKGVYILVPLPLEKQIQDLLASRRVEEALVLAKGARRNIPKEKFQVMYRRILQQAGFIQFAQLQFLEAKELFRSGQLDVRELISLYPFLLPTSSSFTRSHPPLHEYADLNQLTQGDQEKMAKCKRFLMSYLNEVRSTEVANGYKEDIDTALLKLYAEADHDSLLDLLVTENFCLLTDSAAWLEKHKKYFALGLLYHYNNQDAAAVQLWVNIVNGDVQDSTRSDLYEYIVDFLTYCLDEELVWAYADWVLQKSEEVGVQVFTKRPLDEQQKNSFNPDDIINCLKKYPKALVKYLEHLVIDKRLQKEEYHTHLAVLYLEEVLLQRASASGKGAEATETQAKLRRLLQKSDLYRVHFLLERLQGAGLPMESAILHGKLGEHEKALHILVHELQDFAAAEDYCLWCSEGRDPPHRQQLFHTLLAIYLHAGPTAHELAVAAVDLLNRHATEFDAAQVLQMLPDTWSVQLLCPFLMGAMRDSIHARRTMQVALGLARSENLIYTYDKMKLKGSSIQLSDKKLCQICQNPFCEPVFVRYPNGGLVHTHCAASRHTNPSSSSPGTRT
Described as above. To be noted: remark: other sources report otherwise.

B1: HA-VPS3, Q8WUH2 1-860 (protein)
chain: T3 chain
On to B1, for which the binding entry in test [1] is recorded as “binds”.

B2: endogenous VPS3 (protein, UniProt Q8WUH2 1-860)
chain: T3 chain
Turning to B2, the binding entry in test [2] is “binds”.

B3: endogenous VPS3, Q8WUH2 1-860 (protein)
chain: T3 chain
For B3, the binding entry in test [3] is on record as “binds”.

B4: endogenous VPS41, P49754 1-854 (protein)
chain: T1 chain
Turning to B4, in test [4], the binding entry is reported as “binds”.
